Results from PubChem BioAssay AID1671190 (National Center for Advancing Translational Sciences (NCATS), 2021).
Where “and” joins values, the source holds several entries; their conditions need not be identical. Equal values may be shown once. Hit rate of the full screen: of about 580,000 compounds, about 6,100 (1.1%) were called active. Inconclusive results, whose numbers are uncertain, are shown with a selection of clear calls. The call rests on the fitted dose curve; in most records, active means well fitted inhibition curve with a large enough effect; inconclusive means small, poorly fitted or top-dose-only effect, or another doubt; inactive means no such curve, though single readings can be large or run the other way. Potencies beside an inconclusive call are fits to weak or partial responses and may not hold up.
On the % scale 0 is the no-effect control and ±100 the full control effect; potency means the concentration at half of the fitted maximal effect.

Chains of the proteins cited; added tags and fusions are not shown. Lines headed by an entry give the natural chain unless they say otherwise; changes in a name come on top.
UniProt P18054: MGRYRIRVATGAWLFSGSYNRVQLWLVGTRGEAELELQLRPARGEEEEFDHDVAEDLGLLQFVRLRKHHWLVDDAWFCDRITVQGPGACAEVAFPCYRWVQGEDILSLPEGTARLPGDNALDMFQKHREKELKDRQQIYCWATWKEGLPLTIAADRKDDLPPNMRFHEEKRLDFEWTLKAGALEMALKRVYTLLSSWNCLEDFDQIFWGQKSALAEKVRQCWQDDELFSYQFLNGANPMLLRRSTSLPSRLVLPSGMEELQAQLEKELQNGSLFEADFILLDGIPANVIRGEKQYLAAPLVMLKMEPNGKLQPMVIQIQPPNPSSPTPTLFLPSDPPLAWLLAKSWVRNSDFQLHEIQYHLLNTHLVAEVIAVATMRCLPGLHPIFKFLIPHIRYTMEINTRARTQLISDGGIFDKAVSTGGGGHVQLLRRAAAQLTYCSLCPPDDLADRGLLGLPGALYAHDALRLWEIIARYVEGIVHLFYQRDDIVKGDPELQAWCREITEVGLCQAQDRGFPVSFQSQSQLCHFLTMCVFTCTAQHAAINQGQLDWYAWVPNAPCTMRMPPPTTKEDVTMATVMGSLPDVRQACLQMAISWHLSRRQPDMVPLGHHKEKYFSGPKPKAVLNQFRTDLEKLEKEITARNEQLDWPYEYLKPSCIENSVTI

What follows are molecules tested against Polyunsaturated fatty acid lipoxygenase ALOX12 (Homo sapiens) (UniProt P18054) (assay: Primary qHTS assay for inhibitors of human arachidonate 12S-lipoxygenase (ALOX12): Round 2). Conditions: purified 12hLO, xylenol orange hydroperoxide absorbance; activity change, negative = inhibition: at 108 µM (top of the series) unless noted.
Method in brief: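 Hydroperoxide product was detected by ferrous iron/xylenol orange as the 573 to 405 nm absorbance ratio. Arachidonic acid at 40 uM (final) was turned over for 30 min at room temperature by 150 nM human 12hLO, pH 7.0 Hepes buffer, after 15 min compound preincubation.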
In the case of `O=C(NC(=S)NNC(=O)c1ccco1)c1ccccc1`, the Potency is reported as inconclusive: 44.7 µM [inhibitor, partial curve, poor fit].
`Cn1c(=O)c2c(ncn2CC(=O)N(C2CC2)C2CCS(=O)(=O)C2)n(C)c1=O` (centres undefined) was tested, and the “activity change, negative = inhibition” value was inactive: -0.633%.
For `COCOCCn1cc(CN2CCS(=O)(=O)N(Cc3ccc(-c4ccc(OC)c(OC)c4)cc3)C(CC(C)C)C2=O)nn1` (centres undefined), the Potency was inconclusive: 44.7 µM [inhibitor, partial curve, poor fit].
For `CCOC(=O)N1CCN(C(=O)c2ccc(CN(c3ccc(C)c(C)c3)S(C)(=O)=O)cc2)CC1`, the Potency was inconclusive: 1 µM [inhibitor, full curve, poor fit].
`Cc1cccc(C(=O)Nc2ccc(N(C)C)cc2)c1` was tested, and the Potency was inconclusive: 35.5 µM [inhibitor, partial curve, poor fit].
With `COc1ccc(C(=O)Nc2ccc3oc(=O)ccc3c2)cc1OC` the “activity change, negative = inhibition” value was inactive: -2.17%.
For `O=C1NC(=S)CN1c1ccccc1`, the Potency was inconclusive: 3.98 µM [inhibitor, full curve, poor fit].
With `CCOc1ccc(CCN2C(=O)C(=O)N([C@@H](Cc3ccc(O)cc3)CN3CCC[C@@H]3CN3C(=O)C(=O)NC[C@@H]3Cc3ccccc3)C[C@@H]2Cc2ccccc2)cc1` the “activity change, negative = inhibition” value was inactive: -4.55%.
In the case of `O=C(NC1CCNCC1)C1CCCCC1`, the Potency is reported as inconclusive: 35.5 µM [inhibitor, single point].
For `c1cc2c(cc1CN1CCN(C3CCCCCC3)CC1)OCO2`, the Potency was inconclusive: 0.708 µM [inhibitor, full curve, poor fit].
`O=C(OCC#CCSc1nnc(-c2cccc3ccccc23)o1)c1cc2ccccc2s1` was tested, and the Potency was inconclusive: 1.53 µM [inhibitor, full curve, poor fit].
`Cc1ccc(S(=O)(=O)NCc2ccccc2)cc1C(=O)N(C)CC(=O)Nc1ccccc1Br` was tested, and the “activity change, negative = inhibition” value was inactive: 5.77%.
In the case of `Cc1cc(C)n(-c2nc3ccccc3c(=O)n2OC2CCCCC2)n1`, the Potency is reported as inconclusive: 35.5 µM [inhibitor, partial curve, poor fit].
With `Cc1ccc(S(=O)(=O)N2CCC(CCC(=O)NCc3cccc(C)c3)CC2)cc1` the Potency was inconclusive: 8.91 µM [inhibitor, full curve, poor fit].
In the case of `CC(=O)N1CCN(c2ccnc(-c3nnc(C)n3C3CCCCC3)c2)CC1`, the Potency is reported as inconclusive: 56.2 µM [inhibitor, partial curve, poor fit].
`CCCNC(=O)NC(=O)CSc1nc(NC2CC2)c2ccccc2n1` was tested, and the “activity change, negative = inhibition” value was inactive: -16.5%.
In the case of `C=CCOCCN1C(=O)C2C(c3ccccc3)C=CC(c3ccccc3)C2C1=O` (centres undefined), the Potency is reported as inconclusive: 50.1 µM [inhibitor, partial curve, poor fit].
For `Nc1nc(SCc2ccccc2[N+](=O)[O-])c2ncn(Cc3ccccc3)c2n1`, the “activity change, negative = inhibition” value was inactive: -5.23%.
In the case of `CCOc1ccc(-c2cnc(NCc3ccc(C(F)(F)F)cc3)n2C)cc1`, the Potency is reported as inconclusive: 56.2 µM [inhibitor, partial curve, poor fit].
For `COc1ccc(-c2nnc(SC)nc2-c2ccc(OC)c([N+](=O)[O-])c2)cc1[N+](=O)[O-]`, the Potency was inconclusive: 31.6 µM [inhibitor, full curve, poor fit].
`O=C(NC1CCN(Cc2ccccc2)CC1)c1cccc(S(=O)(=O)Nc2ccc(F)cc2)c1` was tested, and the Potency was inconclusive: 79.4 µM [inhibitor, partial curve, poor fit].
`COc1ccc(-n2nc(C3CCN(Cc4ccncc4)CC3)[nH]c2=O)cc1` was tested, and the “activity change, negative = inhibition” value was inactive: 3.22%.
`CCCCNS(=O)(=O)c1ccc2nc(SCC(=O)Nc3cccc(F)c3)[nH]c2c1` was tested, and the Potency was inconclusive: 50.1 µM [inhibitor, partial curve, poor fit].
With `Oc1ccc(-c2nc(-c3cc(F)ccc3F)cs2)cc1` the Potency was inconclusive: 28.2 µM [inhibitor, single point].
With `O=C(Nc1cccc(Cl)c1Cl)C1CCN(C(=O)c2cccs2)CC1` the Potency was inconclusive: 0.178 µM [inhibitor, full curve, poor fit].
For `COc1ccc(-c2ccc3c(N4CCOC[C@H]4C)nc(N4CCOC[C@H]4C)nc3n2)cc1CO`, the Potency was inconclusive: 34.3 µM [inhibitor, partial curve, poor fit].
In the case of `Cc1ccc(NC(=S)NC(=O)C2CC2)c(C)c1`, the Potency is reported as inconclusive: 44.7 µM [inhibitor, partial curve, poor fit].
For `Cn1cnc(Sc2ncnc3nc[nH]c23)c1[N+](=O)[O-]`, the “activity change, negative = inhibition” value was inactive: 7.17%.
With `S=c1[nH]nc(COc2ccccc2)n1-c1ccccc1` the Potency was inconclusive: 50.1 µM [inhibitor, partial curve, poor fit].
For `COc1ccc(CCNC(=O)c2ccc(Cn3ccn4nc5c(c4c3=O)CCCC5)cc2)cc1OC`, the Potency was inconclusive: 44.7 µM [inhibitor, partial curve].
In the case of `Cc1cccc(OCC(=O)NC(Cc2c[nH]c3ccccc23)C(=O)O)c1C` (centres undefined), the Potency is reported as inconclusive: 50.1 µM [inhibitor, partial curve, poor fit] and inconclusive: 89.1 µM [inhibitor, partial curve, poor fit].
With `Cc1cc(C)n(CCCN2CCC(C(=O)Nc3cccc(-c4cccc(F)c4)c3)CC2)n1` the “activity change, negative = inhibition” value was inactive: 0%.
For `COc1ccc(CCNC(=O)C(=O)NCC(c2ccc3c(c2)OCO3)N2CCOCC2)cc1` (centres undefined), the Potency was inconclusive: 44.7 µM [inhibitor, partial curve, poor fit].
With `COc1ccc(NC(=O)CCCNC(=O)c2ccc(Cl)cc2)cc1S(=O)(=O)N1CCCCC1` the Potency was inconclusive: 35.5 µM [inhibitor, partial curve, poor fit].
In the case of `O=C(CCN1C(=O)NC2(CCCC2)C1=O)Nc1ccc(Sc2ccc(Br)cc2)cc1`, the Potency is reported as inconclusive: 79.4 µM [inhibitor, partial curve, poor fit].
In the case of `O=C(O)/C(=C/c1cccs1)c1cccs1`, the Potency is reported as inconclusive: 50.1 µM [inhibitor, partial curve, poor fit].
`CCOC(=O)CCNC(=O)N1CCOc2ccc(CN3CCc4ccccc4C3)cc2C1` was tested, and the Potency was inconclusive: 6.31 µM [inhibitor, partial curve, poor fit].
For `COc1ccc(-n2c(COc3ccc(C)cc3)nnc2SCC(N)=O)cc1`, the Potency was inconclusive: 35.5 µM [inhibitor, partial curve, poor fit].
For `CN1CCN(c2ccccc2NC(=O)c2ccc(-c3ccccc3)cc2)CC1`, the Potency was inconclusive: 70.8 µM [inhibitor, partial curve, poor fit].
In the case of `O=C(O)c1ccccc1S(=O)CCO` (centres undefined), the Potency is reported as inconclusive: 39.8 µM [inhibitor, partial curve, poor fit].
`CC(C)C(=O)Nc1ccc(NC(=O)Nc2ccc(Cl)cc2)cc1` was tested, and the Potency was inconclusive: 50.1 µM [inhibitor, partial curve, poor fit].
`O=S(=O)(N1CC[C@@]23C1=CC=C[C@@H]2N(S(=O)(=O)C(F)(F)F)c1ccccc13)C(F)(F)F` was tested, and the Potency was inconclusive: 50.1 µM [inhibitor, partial curve, poor fit].
In the case of `CN(C)CCNC(=O)c1cc2cc(Cl)ccc2[nH]1`, the Potency is reported as inconclusive: 44.7 µM [inhibitor, partial curve, poor fit].
In the case of `O=C(O)C1CCN(S(=O)(=O)c2ccc(N3CCCC3C(=O)O)c([N+](=O)[O-])c2)CC1` (centres undefined), the Potency is reported as inconclusive: 50.1 µM [inhibitor, partial curve, poor fit].
With `Cn1c(=O)n(-c2ccc(C(C)(C)C#N)cc2)c2c3cc(-c4cnc5ccccc5c4)ccc3ncc21` the “activity change, negative = inhibition” value was inactive: -28.1% [at 57.4 µM].
In the case of `COc1cccc(-c2ccc3ncnc(NCCNC(C)=O)c3c2)c1`, the Potency is reported as inconclusive: 22.4 µM [inhibitor, full curve, poor fit].
In the case of `CNc1nnc(SCc2cccc(C#N)c2)s1`, the Potency is reported as inconclusive: 56.2 µM [inhibitor, partial curve, poor fit].
In the case of `COC(=O)C1=C(C)N=C2SC=C(CC(=O)NC3CC4CCC3C4)N2C1c1ccsc1` (centres undefined), the Potency is reported as inconclusive: 20 µM [inhibitor, full curve].
For `Cc1cccc(NC(=O)c2cccc(C(=O)Nc3cccc(C)c3)n2)c1`, the Potency was inconclusive: 28.2 µM [inhibitor, single point].
With `CC(C)=CC(=O)NC(C)c1ccc(Cl)cc1Cl` (centres undefined) the Potency was inconclusive: 79.4 µM [inhibitor, single point].
For `Cc1cc(NC(=O)COC(=O)c2c(C)noc2C)ccc1Br`, the “activity change, negative = inhibition” value was inactive: -13%.
`CN(Cc1ccccc1)C(=O)COc1ccc(C(C)(C)C)cc1` was tested, and the Potency was inconclusive: 112 µM [inhibitor, single point].
In the case of `CCN1CCN(c2c(/C=C3\SC(=S)N(Cc4ccco4)C3=O)c(C)c(C#N)c(=O)n2C)CC1`, the Potency is reported as inconclusive: 6.31 µM [inhibitor, partial curve, poor fit].
`O=C1CSC(=S)N1N=Cc1c[nH]c2ccc(Br)cc12` was tested, and the Potency was inconclusive: 44.7 µM [inhibitor, partial curve, poor fit].
`CCCOc1ccc(NC(=O)C(C)Oc2cc(C)cc(C)c2)c2cccnc12` (centres undefined) was tested, and the Potency was inconclusive: 112 µM [inhibitor, single point].
For `COc1ccc(-c2csc(-c3nc(-c4ccc(C)cc4C)cs3)n2)cc1`, the Potency was inconclusive: 224 µM [inhibitor, partial curve, poor fit].
`CC1(C)CC(=O)C=C(c2ccc(COC(=O)Cc3ccccc3)cc2)C1=O` was tested, and the Potency was inconclusive: 39.8 µM [inhibitor, single point].
`Clc1ccccc1Sc1ccc(-c2ccccn2)s1` was tested, and the Potency was inconclusive: 100 µM [inhibitor, single point].
For `N#Cc1ccc(/C=C2\CCOc3cc(Br)ccc3C2=O)cc1`, the Potency was inconclusive: 50.1 µM [inhibitor, single point].
